Values are relative to the signal before dosing, not to a vehicle control; the signal also falls without drug.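 Fibroblast labels denote human fibroblasts, mainly primary ones from uterus (C12385, HUF), lung (H6013), bone (Hs27A), adrenal (HADF) and skin (WS1), plus mammary HMF and breast cancer-associated Hs343T. Cancer cells are basal-like or mesenchymal-like triple-negative breast cancer lines. A hit is a response shift exceeding 3x replicate standard deviation. The tissue of the other fibroblasts is not given here.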
Tested on: HCC1143
Assay: relative JC-1 red fluorescence (viability) vs pre-drug, coculture with fibroblast (fraction); higher = more viable cancer cells
Method: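 JC-1 labelled TNBC cells cocultured 1:1 (1,500 cells each) with CellTrace Violet stained primary or stromal fibroblasts in 384-well plates in FluoroBrite medium, treated with one of 42 anticancer drugs at 0.1, 1, 10 or 100 uM. JC-1 red fluorescence (mitochondrial integrity in cancer cells only) was read by plate reader every 8 h for 72 h. Values are normalised to each well's pre-drug value. The stock of one drug was tenfold lower, so its dose labels may be too high.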

O=C(O)CCCc1ccc(N(CCCl)CCCl)cc1 [Chlorambucil]
relative JC-1 red fluorescence
Details | 8 h | 16 h | 24 h | 32 h | 40 h | 48 h | 56 h | 64 h | 72 h
0.1 µM, coculture fibroblast: C12385 | 0.841 | 0.809 | 0.767 | 0.714 | 0.661 | 0.638 | 0.62 | 0.591 | 0.584
0.1 µM, coculture fibroblast: H6013 | 0.781 | 0.734 | 0.702 | 0.692 | 0.638 | 0.63 | 0.595 | 0.585 | 0.542
0.1 µM, coculture fibroblast: H6019 | 0.809 | 0.73 | 0.6795 | 0.604 | 0.56 | 0.553 | 0.497 | 0.4599 | 0.425
0.1 µM, coculture fibroblast: H6076 | 0.809 | 0.779 | 0.737 | 0.699 | 0.651 | 0.637 | 0.616 | 0.594 | 0.602
0.1 µM, coculture fibroblast: H6231 | 0.8115 | 0.801 | 0.733 | 0.672 | 0.632 | 0.604 | 0.572 | 0.543 | 0.534
0.1 µM, coculture fibroblast: HADF | 0.73 | 0.681 | 0.659 | 0.683 | 0.604 | 0.595 | 0.581 | 0.568 | 0.552
0.1 µM, coculture fibroblast: HCFa | 0.807 | 0.748 | 0.713 | 0.705 | 0.637 | 0.619 | 0.576 | 0.548 | 0.523
0.1 µM, coculture fibroblast: HCPF | 0.823 | 0.849 | 0.812 | 0.738 | 0.738 | 0.715 | 0.681 | 0.652 | 0.648
0.1 µM, coculture fibroblast: HHSteC | 0.8548 | 0.809 | 0.776 | 0.7431 | 0.6842 | 0.669 | 0.6348 | 0.612 | 0.5639
0.1 µM, coculture fibroblast: HMF | 0.7772 | 0.811 | 0.733 | 0.636 | 0.634 | 0.601 | 0.566 | 0.53 | 0.504
0.1 µM, coculture fibroblast: HPFa | 0.87 | 0.788 | 0.759 | 0.657 | 0.608 | 0.589 | 0.536 | 0.494 | 0.464
0.1 µM, coculture fibroblast: HUF | 0.838 | 0.743 | 0.678 | 0.598 | 0.551 | 0.533 | 0.486 | 0.461 | 0.437
0.1 µM, coculture fibroblast: Hs5 | 0.8436 | 0.862 | 0.829 | 0.813 | 0.758 | 0.736 | 0.708 | 0.677 | 0.664
0.1 µM, coculture fibroblast: Hs27A | 0.756 | 0.737 | 0.716 | 0.732 | 0.64 | 0.649 | 0.614 | 0.597 | 0.55
0.1 µM, coculture fibroblast: Hs343T | 0.798 | 0.781 | 0.736 | 0.693 | 0.638 | 0.615 | 0.575 | 0.557 | 0.539
0.1 µM, coculture fibroblast: WS1 | 0.8147 | 0.751 | 0.71 | 0.643 | 0.589 | 0.564 | 0.519 | 0.497 | 0.48
1 µM, coculture fibroblast: C12385 | 0.8509 | 0.7482 | 0.667 | 0.596 | 0.528 | 0.466 | 0.42 | 0.374 | 0.345
1 µM, coculture fibroblast: H6013 | 0.774 | 0.683 | 0.639 | 0.633 | 0.553 | 0.538 | 0.504 | 0.485 | 0.458
1 µM, coculture fibroblast: H6019 | 0.792 | 0.681 | 0.628 | 0.561 | 0.505 | 0.467 | 0.414 | 0.361 | 0.326
1 µM, coculture fibroblast: H6076 | 0.801 | 0.8375 | 0.7567 | 0.691 | 0.649 | 0.62 | 0.578 | 0.551 | 0.538
1 µM, coculture fibroblast: H6231 | 0.821 | 0.774 | 0.683 | 0.637 | 0.582 | 0.555 | 0.522 | 0.482 | 0.461
1 µM, coculture fibroblast: HADF | 0.721 | 0.639 | 0.599 | 0.6008 | 0.494 | 0.465 | 0.428 | 0.394 | 0.378
1 µM, coculture fibroblast: HCFa | 0.825 | 0.748 | 0.731 | 0.704 | 0.615 | 0.587 | 0.541 | 0.518 | 0.507
1 µM, coculture fibroblast: HCPF | 0.8 | 0.819 | 0.747 | 0.635 | 0.64 | 0.604 | 0.557 | 0.526 | 0.507
1 µM, coculture fibroblast: HHSteC | 0.85 | 0.784 | 0.743 | 0.711 | 0.647 | 0.623 | 0.577 | 0.546 | 0.502
1 µM, coculture fibroblast: HMF | 0.807 | 0.844 | 0.744 | 0.64 | 0.626 | 0.593 | 0.548 | 0.508 | 0.472
1 µM, coculture fibroblast: HPFa | 0.9119 | 0.825 | 0.77 | 0.677 | 0.589 | 0.545 | 0.48002 | 0.4312 | 0.3899
1 µM, coculture fibroblast: HUF | 0.898 | 0.818 | 0.759 | 0.686 | 0.6345 | 0.6072 | 0.559 | 0.523 | 0.488
1 µM, coculture fibroblast: Hs5 | 0.8485 | 0.817 | 0.783 | 0.772 | 0.692 | 0.67 | 0.63 | 0.605 | 0.6
1 µM, coculture fibroblast: Hs27A | 0.726 | 0.637 | 0.601 | 0.617 | 0.484 | 0.463 | 0.41 | 0.366 | 0.336
1 µM, coculture fibroblast: Hs343T | 0.801 | 0.8694 | 0.7617 | 0.647 | 0.654 | 0.604 | 0.553 | 0.519 | 0.481
1 µM, coculture fibroblast: WS1 | 0.8228 | 0.721 | 0.65 | 0.568 | 0.498 | 0.458 | 0.41 | 0.371 | 0.343

Reference: the supplement of paper PMC6078165
